Test results published in PubChem BioAssay AID1671190 (National Center for Advancing Translational Sciences (NCATS), 2021).
About 6,100 (1.1%) of roughly 580,000 compounds were called active. Inconclusive results, whose numbers are uncertain, are shown with a selection of clear calls. Calls follow the shape of the dose curve; as a rule, active = well fitted inhibition curve with a large enough effect; inconclusive = small, poorly fitted or top-dose-only effect, or another doubt; inactive = no such curve, though single readings can be large or run the other way. Potencies of inconclusive entries are doubtful fits and often do not repeat.

Sequences of proteins named here, by UniProt entry; tags and fusion partners are left off. A change or cut given only in a name is not applied to a line headed by its entry.
UniProt P18054: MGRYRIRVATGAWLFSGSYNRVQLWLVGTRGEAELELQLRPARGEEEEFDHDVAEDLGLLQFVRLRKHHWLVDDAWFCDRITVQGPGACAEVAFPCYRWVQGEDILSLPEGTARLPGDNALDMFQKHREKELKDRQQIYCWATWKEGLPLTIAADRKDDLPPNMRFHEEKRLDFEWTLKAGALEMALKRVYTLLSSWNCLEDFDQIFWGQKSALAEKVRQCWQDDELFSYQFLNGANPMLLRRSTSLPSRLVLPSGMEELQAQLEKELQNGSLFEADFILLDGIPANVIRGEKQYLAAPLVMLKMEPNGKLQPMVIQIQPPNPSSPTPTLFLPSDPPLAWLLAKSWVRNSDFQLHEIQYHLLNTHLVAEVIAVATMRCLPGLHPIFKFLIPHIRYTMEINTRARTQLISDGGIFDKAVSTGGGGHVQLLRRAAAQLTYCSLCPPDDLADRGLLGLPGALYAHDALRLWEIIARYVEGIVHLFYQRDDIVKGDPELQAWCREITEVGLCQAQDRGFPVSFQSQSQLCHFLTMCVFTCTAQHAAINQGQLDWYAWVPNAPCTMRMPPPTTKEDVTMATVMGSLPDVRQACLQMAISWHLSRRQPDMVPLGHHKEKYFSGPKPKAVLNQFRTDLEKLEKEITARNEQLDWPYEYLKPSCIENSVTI

biological target: Polyunsaturated fatty acid lipoxygenase ALOX12 (Homo sapiens) (UniProt P18054); experiment: Primary qHTS assay for inhibitors of human arachidonate 12S-lipoxygenase (ALOX12): Round 2; details: purified 12hLO, xylenol orange hydroperoxide absorbance; activity change, negative = inhibition: at 108 µM (top of the series) unless noted
Summary of the method: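 Purified human 12hLO at 150 nM in 25 mM Hepes, 0.01% Triton X-100, pH 7.0, preincubated 15 min at room temperature with compound. Reaction started with 40 uM arachidonic acid, 30 min at room temperature. Hydroperoxide measured by Fe-xylenol orange, 573/405 nm absorbance ratio.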
% is scaled to controls: 0 for no effect and ±100 for the full control effect; potency is read from the fitted curve at half-maximal effect.

SMILES | Potency | activity change, negative = inhibition
Cc1ccc2[nH]c3c(=O)n(CC(=O)N(CCN(C)C)Cc4ccccc4)ncc3c2c1 | inconclusive: 56.2 µM [inhibitor, partial curve, poor fit] | –
CCc1nc2c(OCCC3CCCCC3)cccn2c1N(C=O)Cc1ccc(OC)cc1 | inconclusive: 39.8 µM [inhibitor, partial curve, poor fit] | –
CCc1nc2ccccc2c(C(=O)OCC(=O)NCc2ccco2)c1C | inactive | –
CC(C)(C)c1nc2c3cc[nH]c(=O)c3c3cc(F)ccc3c2[nH]1 | inconclusive: 24.3 µM [inhibitor, partial curve, poor fit] | –
COc1cc2cnc(-c3ccccc3)c(-c3ccc([N+](=O)[O-])cc3)c2cc1OC | inactive | –
O=C(/C=C/c1ccc2c(c1)OCO2)Nc1nncs1 | inconclusive: 31.6 µM [inhibitor, single point] | –
NC(=O)C1(NC(=O)[C@@H]2CC3(CC(c4cccc(NC(=O)c5cc([N+](=O)[O-])cc([N+](=O)[O-])c5)c4)=NO3)CN2C(=O)c2ccccc2)CC1 (stereo not given in full) | inconclusive: 35.5 µM [inhibitor, partial curve, poor fit] | –
CCOc1cc(Br)c(Br)c(C=Nc2ccc(NC(C)=O)cc2)c1O | inconclusive: 50.1 µM [inhibitor, partial curve, poor fit] | –
COc1ccc(C2CC(c3ccccc3)=NN2S(=O)(=O)c2ccccc2)cc1 (stereo not given) | inactive | –
O=C(Nc1ccc(-c2csc(Nc3ccc(Cl)cc3)n2)cc1)c1cc([N+](=O)[O-])cc(C(F)(F)F)c1 | inconclusive: 79.4 µM [inhibitor, partial curve, poor fit] | –
O=C(Nc1ccc(F)cc1)N1CCOc2ccc(CN3CCc4ccccc4C3)cc2C1 | inconclusive: 79.4 µM [inhibitor, single point] | –
Cc1cnc(C2CCOCC2)n1CC1CCN(S(=O)(=O)c2cccnc2)CC1 | inactive | –
Cc1ccc(NC(=O)Cc2nc(CSc3nncn3-c3ccccc3)cs2)cc1 | inconclusive: 112 µM [inhibitor, single point] | –
Cc1ccc(C2Cn3nnc(C(=O)N4CCC(C(=O)NCc5cccs5)CC4)c3CO2)cc1 (stereo not given) | inactive | –
N#Cc1ccc(C(=O)Nc2cc(-c3ccccc3)nn2-c2ccccc2)cc1 | inconclusive: 126 µM [inhibitor, partial curve, poor fit] | –
S=C(NCCSc1ccc(Cl)cc1)Nc1ccc(Nc2ccccc2)cc1 | active: 35.5 µM | –
CCN1C(=O)[C@H]2[C@H]3CN=C(SCC4CC4)N3[C@@](CC)(C(=O)OC)[C@H]2C1=O | inconclusive: 44.7 µM [inhibitor, partial curve, poor fit] | –
CC1(C(=O)NS(=O)(=O)c2cccc(Cl)c2)CCN1C(=O)C1CCCCC1 (stereo not given) | inconclusive: 56.2 µM [inhibitor, partial curve, poor fit] | –
COc1cc(OC)cc(C(=O)N[C@H](C(=O)NCc2ccc(F)cc2)C(C)C)c1 | inconclusive: 20 µM [inhibitor, partial curve, poor fit] | –
CC(C)CCNC(=O)c1onc(CSc2ccc(Cl)cc2)c1C(=O)NCCC(C)C | inconclusive: 12.6 µM [inhibitor, full curve, poor fit] | –
COc1cc(NC(=S)Nc2ccccn2)cc(OC)c1OC | inconclusive: 39.8 µM [inhibitor, partial curve, poor fit] | –
C=CCn1cc(C(=O)c2cc(Br)ccc2O)cc(C#N)c1=O | inconclusive: 44.7 µM [inhibitor, partial curve, poor fit] | –

Another view of 4 compounds above.
SMILES	Potency	activity change, negative = inhibition
Cc1ccc2[nH]c3c(=O)n(CC(=O)N(CCN(C)C)Cc4ccccc4)ncc3c2c1	inconclusive: 56.2 µM [inhibitor, partial curve, poor fit]	–
COc1cc2cnc(-c3ccccc3)c(-c3ccc([N+](=O)[O-])cc3)c2cc1OC	inactive	–
CC(C)CCNC(=O)c1onc(CSc2ccc(Cl)cc2)c1C(=O)NCCC(C)C	inconclusive: 12.6 µM [inhibitor, full curve, poor fit]	–
COc1cc(NC(=S)Nc2ccccn2)cc(OC)c1OC	inconclusive: 39.8 µM [inhibitor, partial curve, poor fit]	–

The results go on.

SMILES | Potency | activity change, negative = inhibition
C/C(=N/Nc1ccnc2cc(Cl)ccc12)c1ccc(N)cc1 | inconclusive: 50.1 µM [inhibitor, partial curve, poor fit] | –
O=C(Nc1ccc2c(c1)OCO2)c1cc(C2CCCCN2C(=O)CCc2ccccc2)on1 (stereo not given) | inconclusive: 5.01 µM [inhibitor, full curve, poor fit] | –
COc1ccc2nc(C)cc(SCC(=O)NNC(=O)COc3ccccc3)c2c1 | inactive | –
Cc1cccc(C)c1-n1ncc(C(=O)NC2CCCC2)c1C1CCN(C(=O)OC(C)(C)C)CC1 | inconclusive: 126 µM [inhibitor, single point] | –
COc1ccc(Cl)cc1C(=O)NCc1cnn(C)c1C | inconclusive: 100 µM [inhibitor, partial curve, poor fit] | –
COc1ccc(-c2nc3ccccc3o2)cc1NC(=O)CC12CC3CC(CC(C3)C1)C2 | inactive | –
CCN(C(=O)CN1C(=O)c2ccccc2S1(=O)=O)C1CCCCC1 | inconclusive: 3.16 µM [inhibitor, full curve, poor fit] | –
CCOC(=O)c1sc(N)c(C#N)c1CSc1ccc(C)cc1C | inconclusive: 112 µM [inhibitor, partial curve, poor fit] | –
O/N=C/c1c(O)ccc2ccccc12 | inconclusive: 11.2 µM [inhibitor, partial curve, poor fit] | –
CN(Cc1ccco1)C(=O)CCc1c[nH]c2ccccc12 | inconclusive: 3.98 µM [inhibitor, full curve, poor fit] | –
Cc1ccc(CNC(=O)CCc2conc2-c2ccc(F)cc2)o1 | inconclusive: 22.4 µM [inhibitor, full curve, poor fit] | –
COc1ccc(N2CCN(C(=O)c3cc(N4C(=O)C5C6CCC(C6)C5C4=O)ccc3Cl)CC2)cc1 (stereo not given) | inactive | –
Cc1ccsc1C(=O)OCC(=O)Nc1cccc(S(=O)(=O)NC2=NCCCCC2)c1 | inactive | –
Cc1sc2nc(CN3CCOCC3)nc(N3CCOCC3)c2c1C | inconclusive: 0.282 µM [inhibitor, full curve, poor fit] | –
CN(C)CCCN(C(=O)CCc1ccccc1)c1nc2ccc(Cl)cc2s1 | inconclusive: 44.7 µM [inhibitor, partial curve, poor fit] | –
COc1ccccc1CC(=O)NC(c1ccccc1)c1ccccc1 | inconclusive: 112 µM [inhibitor, partial curve, poor fit] | –
O=[N+]([O-])c1cc2c(cc1CN1CCN(CCOCCO)CC1)OCO2 | inconclusive: 3.16 µM [inhibitor, full curve, poor fit] | –
O=C(NCCC1CCN(C(=O)Nc2cc(F)ccc2F)CC1)C1CC1 | inactive | –
CCCCCCCCS(=O)C1CCS(=O)(=O)C1 (stereo not given) | inconclusive: 5.01 µM [inhibitor, partial curve, poor fit] | –
CCOC(=O)N1CCN(C(=O)C(CC(C)C)NS(=O)(=O)c2ccc(C)cc2)CC1 (stereo not given) | inactive | –
CCNC(=O)/N=C1/NC(=O)C(C(C)C)O1 (stereo not given) | inconclusive: 2.51 µM [inhibitor, full curve, poor fit] | –
N#CC1=C(N)c2ccccc2CC12CCCCC2 | inconclusive: 79.4 µM [inhibitor, single point] | –

SMILES | Potency | activity change, negative = inhibition
O=C(c1cccn2c(=O)c3cc(Cl)ccc3nc12)N1CCOCC1 | inactive | –
O=C(COc1ccc(Cl)cc1Cl)Nc1cccc2cccnc12 | inconclusive: 50.1 µM [inhibitor, partial curve, poor fit] | –
Cc1ccc(NS(=O)(=O)c2cc(-c3ccno3)oc2C)c(C)c1 | inconclusive: 56.2 µM [inhibitor, partial curve, poor fit] | –
O=C(CSc1ccccn1)N1CCc2ccccc21 | inconclusive: 50.1 µM [inhibitor, partial curve, poor fit] | –
COc1ccc(NC(=O)COc2ccc(/C(C)=N/O)cc2)cc1 | inconclusive: 39.8 µM [inhibitor, partial curve, poor fit] | –
O=C(CSc1nc(-c2ccccc2)cs1)N1CCN(C(=O)c2ccco2)CC1 | inconclusive: 44.7 µM [inhibitor, partial curve, poor fit] | –
Cc1nc(-c2cccc(Cl)c2)n(CC(=O)Nc2ccccc2F)c(=O)c1CCO | inconclusive: 20 µM [inhibitor, full curve] | –
COc1ccc(NC(=O)c2cc3sccc3n2Cc2ccc(F)cc2)cc1OC | inactive | –
Cc1noc(C)c1-c1cc2c(cc(C)n2CCN(C)C)c(-c2ccccc2O)n1 | active: 79.4 µM | –
CCCCN(C(=O)c1ccc(C)c(S(=O)(=O)N2CCOCC2)c1)c1c(N)n(CC(C)C)c(=O)[nH]c1=O | inactive | –
CC(C#N)Sc1nnc(Nc2ccccc2)s1 (stereo not given) | inconclusive: 39.8 µM [inhibitor, partial curve, poor fit] | –
Cc1cccnc1NC(=O)Cn1nc([N+](=O)[O-])cc1C | inactive | –
O=C(NCCC1=CCCCC1)C1CCN(C(=O)c2ncn3c2COC(c2ccccc2)C3)CC1 (stereo not given) | inactive | –
Cc1nc2sc3c(c2c2nc(C(=O)NCCN(C)C)nn12)CC(C)CC3 (stereo not given) | inactive | –
Cc1nn(C)c(Oc2cccc(Cl)c2)c1C(=O)O | – | inconclusive: -49.6% [inhibitor]
CC1CCN(c2ccc(NC(=O)c3cccnc3)cc2)CC1 | inactive | –
CNC(=O)[C@@H](c1ccc(Cl)cc1)N1CCC[C@H]1C(=O)NC(C)(C)C | inconclusive: 12.6 µM [inhibitor, partial curve, poor fit] | –
Cc1noc(C)c1S(=O)(=O)NC(=O)C1(C)CCN1C(=O)C1(c2ccc(Cl)cc2)CC1 (stereo not given) | inconclusive: 56.2 µM [inhibitor, partial curve, poor fit] | –
CCCc1cc(-c2nc(N)ncc2-c2ccc3c(c2)OCCCO3)c(O)cc1OC | inactive | –
O=C(Nc1ccc2c(c1)OCCO2)C(=O)c1c[nH]c2cc(F)ccc12 | inactive | –
O=C(NCC1CCNCC1)c1ccc(C2CCNC2)cc1 (stereo not given) | inconclusive: 56.2 µM [inhibitor, partial curve, poor fit] | –
